PubChem BioAssay AID1508597, Cure First – 2020

- Assay: 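Knock-downs altering ovarian cancer cell survival with or without PARP inhibitor rucaparib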 (primary screen)
- Cell system: human ovarian carcinoma lines grown from tumours: OCI-P5x (papillary serous) and OCI-C5x (clear cell)
- Knock-down reagent: siRNA pool against human genes, 1.25 pmol siRNA per well
- Duration: 72 h or 96 h, depending on the cell culture
- Challenge: rucaparib 20 µM (about IC30) or vehicle, present until read-out
- Rucaparib or vehicle: Vehicle
- Cell line: OCI-P5x (serous)
- Detection: 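ATP luminescence measured at 72 or 96 h according to the culture, then normalised and expressed as percent viability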
- Reading the numbers: viability, normalised: higher = more viable cells remaining
- Rule for the call: 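Active when normalised viability falls below 80 percent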
- Meaning of the calls: active = viability under 80%; inactive = viability 80% or more
Shown is a random part of the about 2,100 reagents, in one setting of the screen. 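Calls flag viability under 80% in either arm, not effects specific to rucaparib; the reference for percent is not stated.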 Entries without a mark were called inactive. Not given: the 100% reference.

{"gene knocked down": "NUDT1 (nudix hydrolase 1)", "technical replicate": "1", "viability, normalised (%)": "51.9 (active)"}
{"gene knocked down": "NUDT1 (nudix hydrolase 1)", "technical replicate": "2", "viability, normalised (%)": "61.6 (active)"}
{"gene knocked down": "NUDT1 (nudix hydrolase 1)", "technical replicate": "3", "viability, normalised (%)": "65 (active)"}
{"gene knocked down": "MAP1B (microtubule associated protein 1B)", "technical replicate": "1", "viability, normalised (%)": "46.7 (active)"}
{"gene knocked down": "MAP1B (microtubule associated protein 1B)", "technical replicate": "2", "viability, normalised (%)": "61 (active)"}
{"gene knocked down": "MAP1B (microtubule associated protein 1B)", "technical replicate": "3", "viability, normalised (%)": "66.4 (active)"}
{"gene knocked down": "HDGFL3 (HDGF like 3)", "technical replicate": "1", "viability, normalised (%)": "55.1 (active)"}
{"gene knocked down": "HDGFL3 (HDGF like 3)", "technical replicate": "2", "viability, normalised (%)": "61.9 (active)"}
{"gene knocked down": "HDGFL3 (HDGF like 3)", "technical replicate": "3", "viability, normalised (%)": 85.8}
{"gene knocked down": "GRK2 (G protein-coupled receptor kinase 2)", "technical replicate": "1", "viability, normalised (%)": 85.5}
{"gene knocked down": "GRK2 (G protein-coupled receptor kinase 2)", "technical replicate": "2", "viability, normalised (%)": "63.9 (active)"}
{"gene knocked down": "GRK2 (G protein-coupled receptor kinase 2)", "technical replicate": "3", "viability, normalised (%)": "65.6 (active)"}
{"gene knocked down": "KDM1B (lysine demethylase 1B)", "technical replicate": "1", "viability, normalised (%)": "69.6 (active)"}
{"gene knocked down": "KDM1B (lysine demethylase 1B)", "technical replicate": "2", "viability, normalised (%)": "72.3 (active)"}
{"gene knocked down": "KDM1B (lysine demethylase 1B)", "technical replicate": "3", "viability, normalised (%)": "62 (active)"}
{"gene knocked down": "ALK (ALK receptor tyrosine kinase)", "technical replicate": "1", "viability, normalised (%)": 91}
{"gene knocked down": "ALK (ALK receptor tyrosine kinase)", "technical replicate": "2", "viability, normalised (%)": 90.6}
{"gene knocked down": "ALK (ALK receptor tyrosine kinase)", "technical replicate": "3", "viability, normalised (%)": 82.8}
{"gene knocked down": "PRKX (protein kinase cAMP-dependent X-linked catalytic subunit)", "technical replicate": "1", "viability, normalised (%)": 89.2}
{"gene knocked down": "PRKX (protein kinase cAMP-dependent X-linked catalytic subunit)", "technical replicate": "2", "viability, normalised (%)": "79 (active)"}
{"gene knocked down": "PRKX (protein kinase cAMP-dependent X-linked catalytic subunit)", "technical replicate": "3", "viability, normalised (%)": 84.8}

4 of these entries, reformatted.
GRK2 (G protein-coupled receptor kinase 2), technical replicate 3
- viability, normalised (%): 65.6 (active)

KDM1B (lysine demethylase 1B), technical replicate 1
- viability, normalised (%): 69.6 (active)

KDM1B (lysine demethylase 1B), technical replicate 2
- viability, normalised (%): 72.3 (active)

KDM1B (lysine demethylase 1B), technical replicate 3
- viability, normalised (%): 62 (active)
